# Construct, isoform or probe ends are uncertain for at least one entry. The comparison behind a weaker result is the experiment's own reference, which may not be listed here. Protein sequences can lack the tags named with them.
# Target: T1, GST-LHP1 KR9A R166A,K167A,R168A,K169A,R170A,K171A,K180A,K181A,K182A (Arabidopsis thaliana (Col-0 cDNA)) (UniProt Q946J8)
# T1 sequence (looked up, limits assumed): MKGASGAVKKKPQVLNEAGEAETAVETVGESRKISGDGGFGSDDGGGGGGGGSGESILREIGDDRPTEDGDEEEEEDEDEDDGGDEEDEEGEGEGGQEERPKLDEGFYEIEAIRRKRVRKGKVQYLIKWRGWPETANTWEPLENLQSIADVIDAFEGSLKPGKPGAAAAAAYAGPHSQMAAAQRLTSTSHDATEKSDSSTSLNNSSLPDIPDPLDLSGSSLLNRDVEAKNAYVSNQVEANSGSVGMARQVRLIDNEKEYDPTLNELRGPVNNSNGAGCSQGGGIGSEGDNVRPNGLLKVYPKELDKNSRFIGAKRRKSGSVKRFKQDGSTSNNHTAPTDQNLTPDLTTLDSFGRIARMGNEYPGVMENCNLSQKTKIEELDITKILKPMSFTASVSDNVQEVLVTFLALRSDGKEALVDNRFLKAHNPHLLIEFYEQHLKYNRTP
# Assay: EMSA
# Settings: EMSA: 20 mM HEPES-KOH pH 7.5, 100 mM KCl, 0.05% NP-40, 10 nM Cy5 probe (1 uL of 100 nM + 9 uL protein), 30 min room temperature; 1.6% TBE-agarose gel; recombinant protein; protein details: N-terminal GST (pGEX-4T-1); label: 5' Cy5
sequence,measurement,value
CUCCUCCGGCGAUAAGUACGCCUUUUCCUUACCUGGGUUU [FLC 40-nt ssRNA],binding result,binds more weakly

# Source: publication PMC5749160, “Disruption of an RNA-binding hinge region abolishes LHP1-mediated epigenetic repression”
